Laboratory results as given in PMC3045441.
Results are given in words; binding and its absence hold for the method and conditions named. Some entries that bind do so weakly or less than the wild type. Tags and fused reporters may be left off the sequences shown.

T1: testis-expressed gene 14 (TEX14), full-length mouse, yeast two-hybrid fusion (mouse) (UniProt Q7M6U3)
T1 sequence: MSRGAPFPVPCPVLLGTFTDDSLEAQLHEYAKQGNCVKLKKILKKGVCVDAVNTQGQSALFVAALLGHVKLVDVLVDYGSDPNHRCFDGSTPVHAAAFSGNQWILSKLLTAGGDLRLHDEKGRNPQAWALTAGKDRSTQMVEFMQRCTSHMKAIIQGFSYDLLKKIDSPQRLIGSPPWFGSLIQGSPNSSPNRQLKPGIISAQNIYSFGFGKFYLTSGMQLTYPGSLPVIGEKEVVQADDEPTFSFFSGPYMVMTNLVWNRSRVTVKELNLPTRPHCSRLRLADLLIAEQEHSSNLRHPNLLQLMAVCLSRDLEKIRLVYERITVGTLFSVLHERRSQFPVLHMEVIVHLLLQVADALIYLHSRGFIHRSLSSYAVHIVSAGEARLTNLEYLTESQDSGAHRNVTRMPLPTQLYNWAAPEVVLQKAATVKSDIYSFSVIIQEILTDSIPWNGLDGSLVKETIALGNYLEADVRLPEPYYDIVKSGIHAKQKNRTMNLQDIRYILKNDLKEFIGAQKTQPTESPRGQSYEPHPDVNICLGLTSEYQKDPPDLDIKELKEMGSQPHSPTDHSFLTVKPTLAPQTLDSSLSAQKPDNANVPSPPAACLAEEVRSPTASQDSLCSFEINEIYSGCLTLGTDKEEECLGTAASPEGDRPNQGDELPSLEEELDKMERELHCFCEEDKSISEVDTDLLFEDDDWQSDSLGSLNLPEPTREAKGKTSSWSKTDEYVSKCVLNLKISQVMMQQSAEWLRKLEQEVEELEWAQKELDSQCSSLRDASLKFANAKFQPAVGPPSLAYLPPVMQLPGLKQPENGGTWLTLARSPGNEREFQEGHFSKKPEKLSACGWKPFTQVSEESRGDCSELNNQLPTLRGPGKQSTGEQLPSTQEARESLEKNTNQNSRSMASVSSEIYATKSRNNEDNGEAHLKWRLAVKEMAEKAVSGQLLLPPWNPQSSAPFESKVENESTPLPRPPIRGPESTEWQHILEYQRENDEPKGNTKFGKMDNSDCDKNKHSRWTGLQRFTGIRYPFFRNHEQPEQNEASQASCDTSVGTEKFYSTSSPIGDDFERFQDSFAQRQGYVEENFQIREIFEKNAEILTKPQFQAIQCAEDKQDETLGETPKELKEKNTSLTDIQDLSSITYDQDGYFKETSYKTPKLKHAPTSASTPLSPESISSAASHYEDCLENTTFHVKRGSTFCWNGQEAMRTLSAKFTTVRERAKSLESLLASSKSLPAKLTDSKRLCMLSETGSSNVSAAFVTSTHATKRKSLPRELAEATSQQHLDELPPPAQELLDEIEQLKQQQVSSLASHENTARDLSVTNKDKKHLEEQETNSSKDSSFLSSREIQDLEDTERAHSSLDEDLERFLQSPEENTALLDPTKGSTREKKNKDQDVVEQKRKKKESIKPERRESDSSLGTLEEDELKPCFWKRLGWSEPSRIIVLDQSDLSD


Biological target: T1, testis-expressed gene 14 (TEX14), full-length mouse, yeast two-hybrid fusion (mouse)
Experiment: two-hybrid; yeast, Matchmaker Two-Hybrid System 3 (Clontech), GAL4 pGBKT7 bait and pGADT7 prey vectors, full-length mouse proteins; some interactions also examined with an oxygen-biosensor assay of yeast growth in selective medium

Row | binding | Binder
1 | binds | mitotic kinesis-like protein 1 (MKLP1), full-length mouse, yeast two-hybrid fusion (protein, UniProt E9Q5G3 1-953) MKSAKAKTVRKPVIKKGSQTNLKDPVGVYCRVRPLSFPDQECCVEVINSTTLQLHTPEGYRLNRNGDYKETQYSFKRVFGTHTTQKELFDVVANPLVDDLIHGKNGLLFTYGVTGSGKTYTMTGSPGSGGLLPRCLNMIFNSIGSFQAKRYVFKSNDRNSMEIQCEVDALLERQKREALPIPKTPSSKRQADPEFADMINVQEFCKAEEVDEDSVYGVFVSYIEIYNNYIYDLLEEVQFDPIKPKLPQSKTLREDKNHNMYVAGCTEVEVKSTEEAFEVFWRGQKKRRIANTHLNRESSRSHSVFSIKLVQAPLDADGDNVLQEKEQITISQLSLVDLAGSERTNRTKAEGNRLREAGNINQSLMTLRTCMEVLRENQTYGTNKMVPYRDSKLTHLFKNYFDGEGKVRMIVCVNPKAEDYEESLQVMRFAEVTQEVEVARPVDKVICGLTPGRRYRNLPRGGPVGDEPLVPEVILQSFPPLPPCKLLDINDEETLPKLADTLEKRHHLRQLMTEDLNKKCLAFKALLKEFDNSLSNKENYVQEKLNEREKVISGQKLEIERLEKKNKTLEYKIEILEKTTTIYEEDKRNLQQELESQNQKLQRQFSDKRRLEARLQGMVTETSMKWQKECERRVAATQLEMQNKLWVKDEKLKQLKAIVTEPKPEKPERPSRERDREKIIPRSVSPSPLPLSSNNIAQISNGQQLMSQPQLHRRSNSCSSISVASCISEWEQKLSPFSTPVNVTSLARHRQQEPGQSKTCIVSDRRRGMCWTEGREMVPTFSSEIGVEEDHCRRNTPIPVRHRRSRSAGSRWVDHKPASNVQTETVMQPHVPHAITVSVANEKALAKCEKYMLTHQELASDGEIQTKVIKGDVYKTRGGGQSVQFTDIETLKQELPTGSRKRRSSTLAPAQPDGTESEWTDVETRCSVAVEMRAGSQLGPGYQHHAQPKRKKP
2 | binds | testis-expressed gene 14 (TEX14), full-length mouse, yeast two-hybrid fusion (protein, UniProt Q7M6U3 1-1450) MSRGAPFPVPCPVLLGTFTDDSLEAQLHEYAKQGNCVKLKKILKKGVCVDAVNTQGQSALFVAALLGHVKLVDVLVDYGSDPNHRCFDGSTPVHAAAFSGNQWILSKLLTAGGDLRLHDEKGRNPQAWALTAGKDRSTQMVEFMQRCTSHMKAIIQGFSYDLLKKIDSPQRLIGSPPWFGSLIQGSPNSSPNRQLKPGIISAQNIYSFGFGKFYLTSGMQLTYPGSLPVIGEKEVVQADDEPTFSFFSGPYMVMTNLVWNRSRVTVKELNLPTRPHCSRLRLADLLIAEQEHSSNLRHPNLLQLMAVCLSRDLEKIRLVYERITVGTLFSVLHERRSQFPVLHMEVIVHLLLQVADALIYLHSRGFIHRSLSSYAVHIVSAGEARLTNLEYLTESQDSGAHRNVTRMPLPTQLYNWAAPEVVLQKAATVKSDIYSFSVIIQEILTDSIPWNGLDGSLVKETIALGNYLEADVRLPEPYYDIVKSGIHAKQKNRTMNLQDIRYILKNDLKEFIGAQKTQPTESPRGQSYEPHPDVNICLGLTSEYQKDPPDLDIKELKEMGSQPHSPTDHSFLTVKPTLAPQTLDSSLSAQKPDNANVPSPPAACLAEEVRSPTASQDSLCSFEINEIYSGCLTLGTDKEEECLGTAASPEGDRPNQGDELPSLEEELDKMERELHCFCEEDKSISEVDTDLLFEDDDWQSDSLGSLNLPEPTREAKGKTSSWSKTDEYVSKCVLNLKISQVMMQQSAEWLRKLEQEVEELEWAQKELDSQCSSLRDASLKFANAKFQPAVGPPSLAYLPPVMQLPGLKQPENGGTWLTLARSPGNEREFQEGHFSKKPEKLSACGWKPFTQVSEESRGDCSELNNQLPTLRGPGKQSTGEQLPSTQEARESLEKNTNQNSRSMASVSSEIYATKSRNNEDNGEAHLKWRLAVKEMAEKAVSGQLLLPPWNPQSSAPFESKVENESTPLPRPPIRGPESTEWQHILEYQRENDEPKGNTKFGKMDNSDCDKNKHSRWTGLQRFTGIRYPFFRNHEQPEQNEASQASCDTSVGTEKFYSTSSPIGDDFERFQDSFAQRQGYVEENFQIREIFEKNAEILTKPQFQAIQCAEDKQDETLGETPKELKEKNTSLTDIQDLSSITYDQDGYFKETSYKTPKLKHAPTSASTPLSPESISSAASHYEDCLENTTFHVKRGSTFCWNGQEAMRTLSAKFTTVRERAKSLESLLASSKSLPAKLTDSKRLCMLSETGSSNVSAAFVTSTHATKRKSLPRELAEATSQQHLDELPPPAQELLDEIEQLKQQQVSSLASHENTARDLSVTNKDKKHLEEQETNSSKDSSFLSSREIQDLEDTERAHSSLDEDLERFLQSPEENTALLDPTKGSTREKKNKDQDVVEQKRKKKESIKPERRESDSSLGTLEEDELKPCFWKRLGWSEPSRIIVLDQSDLSD
3 | binds | centrosomal protein 55 kDa (CEP55), full-length mouse, yeast two-hybrid fusion (protein, UniProt Q8BT07 1-462) MSSRSPKDLIKSKWGSRPSSSKSDTALEKFKGEIAAFKTSLDEITSGKGKMAEKGRSRLLEKIQVLEAEREKNVYYLLEKDKEIQRLKDHLRSRYSSSSLFEQLEEKTKECEKKQQLLESLSKETDVLKNQLSATTKRLSELESKASTLHLSQSMPANCFNSSMNSIHEKEMQLKDALEKNQQWLVYDQQREAYVKGLLAKIFELEKRTETAAASLTQQMKKIESEGYLQVEKQKYDHLLENAKKDLEVERQAVTQLRLELDEFRRKYEEARKEVEDLNQLLSSQRKADIQHLEEDKQKTERIQKLREESSIFKGKLEEERKRSEELLSQVRILYDSLLKHQEEQARVALLEQQMQACTLDFENEKLDRQNMQHQLYVILKELRKAKSQITQLESLKQLHGFTITEQPFPLQREPESRVKATSPKSPSAALNDSLVECPKCSVQYPATEHRDLLVHVEYCMK
